# Measured values reported in PMC8702954.
# For at least one entry, the source does not settle the construct or the ends of the probe.
# Experiments:
# [1] = system: GST-ONAC096 (Oryza sativa (rice)); test: EMSA; details: EMSA: 10 uL, 1x LightShift kit binding buffer (composition, pH and salt not given), 2 ug protein, 28 C 20 min, 6% native PAGE; recombinant protein; protein details: N-terminal GST (pGEX-4T-3); label: biotin
# [2] = system: GST-ONAC096 (Oryza sativa (rice)); test: competition with a labelled probe; details: EMSA: 10 uL, 1x LightShift kit binding buffer (composition, pH and salt not given), 2 ug protein, 28 C 20 min, 6% native PAGE, recombinant protein, protein details: N-terminal GST (pGEX-4T-3)
Sequence,binding result [1],also measured
AAAACACGTATACAGCCAAAATACGTTACACGGTGG (double strand) [wP2 (OsRap2.6 promoter)],binds,
AAAACACGTATACAGCCAAAATACGTTACACGGTGG (double strand) [wP2 unlabeled competitor],,binding result ([2]; 100x excess unlabeled against biotin-wP2 (EMSA)): binds
GTAAGGTGGATCCACGGGTCAGGCATGG (double strand) [wP4 (OsRap2.6 promoter)],binds,
GTAAGGTGGATCCACGGGTCAGGCATGG (double strand) [wP4 unlabeled competitor],,binding result ([2]; 100x excess unlabeled against biotin-wP4 (EMSA)): binds
